Our source for the NP40-soluble protein abundance values is the supplement of paper PMC6411743.

For this assay, the target named is T1, RAB3GAP2 (UniProt Q9H2M9).
T1 sequence (whole entry): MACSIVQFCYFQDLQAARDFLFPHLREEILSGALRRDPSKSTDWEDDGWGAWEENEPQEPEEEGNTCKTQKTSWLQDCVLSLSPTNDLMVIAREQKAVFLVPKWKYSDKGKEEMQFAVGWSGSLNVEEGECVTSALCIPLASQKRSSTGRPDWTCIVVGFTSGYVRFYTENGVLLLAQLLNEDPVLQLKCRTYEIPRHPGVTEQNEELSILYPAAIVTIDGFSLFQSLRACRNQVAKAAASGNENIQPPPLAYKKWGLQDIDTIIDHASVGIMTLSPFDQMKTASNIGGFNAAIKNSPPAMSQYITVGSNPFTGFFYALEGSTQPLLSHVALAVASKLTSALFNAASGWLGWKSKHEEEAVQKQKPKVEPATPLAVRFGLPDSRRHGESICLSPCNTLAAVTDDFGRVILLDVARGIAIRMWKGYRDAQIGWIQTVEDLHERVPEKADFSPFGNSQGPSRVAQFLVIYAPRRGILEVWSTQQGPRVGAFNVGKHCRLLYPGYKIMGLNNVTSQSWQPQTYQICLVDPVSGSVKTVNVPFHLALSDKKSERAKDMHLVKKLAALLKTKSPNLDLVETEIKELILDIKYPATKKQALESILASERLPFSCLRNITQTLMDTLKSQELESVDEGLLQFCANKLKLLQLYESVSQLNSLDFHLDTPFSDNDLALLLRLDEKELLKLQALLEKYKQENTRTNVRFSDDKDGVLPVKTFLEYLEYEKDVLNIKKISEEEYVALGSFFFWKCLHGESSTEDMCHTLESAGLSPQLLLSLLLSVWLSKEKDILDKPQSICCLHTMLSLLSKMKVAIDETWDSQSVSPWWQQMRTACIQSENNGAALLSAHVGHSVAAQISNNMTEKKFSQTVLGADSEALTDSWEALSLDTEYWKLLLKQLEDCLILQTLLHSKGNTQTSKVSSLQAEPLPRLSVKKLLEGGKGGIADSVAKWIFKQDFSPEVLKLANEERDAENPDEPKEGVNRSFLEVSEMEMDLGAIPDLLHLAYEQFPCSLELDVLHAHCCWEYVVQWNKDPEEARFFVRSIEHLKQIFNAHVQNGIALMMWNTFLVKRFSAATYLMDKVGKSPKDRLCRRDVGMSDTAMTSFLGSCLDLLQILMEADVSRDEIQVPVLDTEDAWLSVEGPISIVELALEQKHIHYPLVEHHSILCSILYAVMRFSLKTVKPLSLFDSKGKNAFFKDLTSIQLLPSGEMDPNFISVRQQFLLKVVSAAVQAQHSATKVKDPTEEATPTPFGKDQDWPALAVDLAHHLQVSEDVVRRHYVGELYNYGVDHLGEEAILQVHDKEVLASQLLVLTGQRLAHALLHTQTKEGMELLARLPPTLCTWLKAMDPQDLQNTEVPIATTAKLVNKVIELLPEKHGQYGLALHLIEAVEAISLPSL
The assay can be described thus: NP40-soluble protein abundance relative to vehicle (solubility fold change) (ratio); higher = more soluble protein in presence of GTP. The procedure: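 Solubility proteome profiling in Jurkat crude lysate. Lysate was treated with Mg-GTP (0.1-10 mM) for 10 min at room temperature and 3 min at 37 °C, then solubilised with 0.8% NP40 and benzonase, followed by ultracentrifugation. Proteins were quantified by TMT10 LC-MS/MS; the value is the NP40-soluble abundance relative to the NP40-processed vehicle, from 3 independent experiments.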

Each structure is given as a SMILES string. ± gives the standard deviation of the averaged measurements. Some of the results follow.

For `Nc1nc2c(ncn2[C@@H]2O[C@H](COP(=O)(O)OP(=O)(O)OP(=O)(O)O)[C@@H](O)[C@H]2O)c(=O)[nH]1` [guanosine triphosphate], the NP40-soluble protein abundance is, setting by setting: (concentration: 0.1mM) 1.04 ± 0.053; (concentration: 0.5mM) 1.04 ± 0.074; (concentration: 1mM) 0.999 ± 0.052; (concentration: 2mM) 0.992 ± 0.058; (concentration: 4mM) 0.982 ± 0.054; (concentration: 6mM) 0.971 ± 0.051. The NP40-soluble protein abundance amounted to 0.934 ± 0.034 (concentration: 8mM) and 0.931 ± 0.059 (concentration: 10mM).
